This is one part of the list.
Tests used:
Assay in all cases: glycan array binding signal (z-score within array); higher = stronger binding
Conditions in all cases: glycan notation: IUPAC condensed, linker removed
[1] = test system: GlcNAc(b1-2)Man(a1-3)[GlcNAc(b1-2)Man(a1-6)]Man(b1-4)GlcNAc(b1-4)GlcNAc
Outline: (§1)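 Negative Z-scores can be read as non-binding. The Z-score is calculated within each array and then averaged across arrays of one protein sequence at different concentrations or buffers and across linkers. Arrays, 3228 in all, were curated from the Consortium for Functional Glycomics database and kept only where the protein sequence was available.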

[2] = test system: GlcNAc(b1-2)Man(a1-3)[GlcNAc(b1-2)Man(a1-6)]Man(b1-4)GlcNAc(b1-4)[Fuc(a1-6)]GlcNAc
Outline: as §1

[3] = test system: GlcNAc(b1-2)Man(a1-3)[GlcNAc(b1-4)][GlcNAc(b1-2)Man(a1-6)]Man(b1-4)GlcNAc(b1-4)GlcNAc
Outline: as §1

[4] = test system: GlcNAc(b1-2)[GlcNAc(b1-4)]Man(a1-3)[GlcNAc(b1-2)Man(a1-6)]Man(b1-4)GlcNAc(b1-4)GlcNAc
Outline: as §1

[5] = test system: GlcNAc(b1-2)[GlcNAc(b1-4)]Man(a1-3)[GlcNAc(b1-4)][GlcNAc(b1-2)Man(a1-6)]Man(b1-4)GlcNAc(b1-4)GlcNAc
Outline: as §1

[6] = test system: GlcNAc(b1-2)[GlcNAc(b1-4)]Man(a1-3)[GlcNAc(b1-4)][GlcNAc(b1-2)[GlcNAc(b1-6)]Man(a1-6)]Man(b1-4)GlcNAc(b1-4)GlcNAc
Outline: as §1

[7] = test system: GlcNAc(b1-2)[GlcNAc(b1-4)]Man(a1-3)[GlcNAc(b1-4)][GlcNAc(b1-2)[GlcNAc(b1-6)]Man(a1-6)]Man(b1-4)GlcNAc(b1-4)[Fuc(a1-6)]GlcNAc
Outline: as §1

[8] = test system: GlcNAc(b1-2)[GlcNAc(b1-6)]Man(a1-6)[GlcNAc(b1-2)Man(a1-3)]Man(b1-4)GlcNAc(b1-4)GlcNAc
Outline: as §1

[9] = test system: GlcNAc(b1-2)[GlcNAc(b1-6)]Man(a1-6)[GlcNAc(b1-2)Man(a1-3)]Man(b1-4)GlcNAc(b1-4)[Fuc(a1-6)]GlcNAc
Outline: as §1

[10] = test system: GlcNAc(b1-2)[GlcNAc(b1-6)]Man(a1-6)[GlcNAc(b1-2)Man(a1-3)][GlcNAc(b1-4)]Man(b1-4)GlcNAc(b1-4)GlcNAc
Outline: as §1

[11] = test system: GlcNAc(b1-3)Gal(b1-3)GalNAc
Outline: as §1

[12] = test system: GlcNAc(b1-3)Gal(b1-4)GlcNAc(b1-3)Gal(b1-4)GlcNAc
Outline: as §1

[13] = test system: GlcNAc(b1-3)Gal(b1-4)GlcNAc
Outline: as §1

GlcNAc(b1-3)Gal(b1-4)Glc = test system: GlcNAc(b1-3)Gal(b1-4)Glc
Outline: as §1

GlcNAc(b1-3)GalNAc = test system: GlcNAc(b1-3)GalNAc
Outline: as §1

GlcNAc(b1-3)Gal = test system: GlcNAc(b1-3)Gal
Outline: as §1

GlcNAc(b1-3)Man = test system: GlcNAc(b1-3)Man
Outline: as §1

[14] = test system: GlcNAc(b1-3)[GlcNAc(b1-4)][GlcNAc(b1-6)]GlcNAc
Outline: as §1

[15] = test system: GlcNAc(b1-3)[GlcNAc(b1-6)]Gal(b1-4)GlcNAc
Outline: as §1

[16] = test system: GlcNAc(b1-3)[GlcNAc(b1-6)]GalNAc
Outline: as §1

[17] = test system: GlcNAc(b1-4)Gal(b1-4)GlcNAc
Outline: as §1

[18] = test system: GlcNAc(b1-4)GlcNAc(b1-4)GlcNAc(b1-4)GlcNAc(b1-4)GlcNAc(b1-4)GlcNAc
Outline: as §1

[19] = test system: GlcNAc(b1-4)GlcNAc(b1-4)GlcNAc(b1-4)GlcNAc(b1-4)GlcNAc
Outline: as §1

[20] = test system: GlcNAc(b1-4)GlcNAc(b1-4)GlcNAc
Outline: as §1

GlcNAc(b1-4)GlcNAc = test system: GlcNAc(b1-4)GlcNAc
Outline: as §1

[21] = test system: GlcNAc(b1-4)[GlcNAc(b1-6)]GalNAc
Outline: as §1

[22] = test system: GlcNAc(b1-6)Gal(b1-4)GlcNAc
Outline: as §1

GlcNAc(b1-6)GalNAc = test system: GlcNAc(b1-6)GalNAc
Outline: as §1

GlcNAc3Prop(b1-4)GlcNAc = test system: GlcNAc3Prop(b1-4)GlcNAc
Outline: as §1

[23] = test system: GlcNAc6S(b1-3)Gal(b1-4)GlcNAc
Outline: as §1

Kdn(a2-3)Gal(b1-3)GalNAc = test system: Kdn(a2-3)Gal(b1-3)GalNAc
Outline: as §1

Kdn(a2-3)Gal(b1-3)GlcNAc = test system: Kdn(a2-3)Gal(b1-3)GlcNAc
Outline: as §1

Kdn(a2-3)Gal(b1-4)GlcNAc = test system: Kdn(a2-3)Gal(b1-4)GlcNAc
Outline: as §1

Kdn(a2-3)Gal(b1-4)Glc = test system: Kdn(a2-3)Gal(b1-4)Glc
Outline: as §1

[24] = test system: Kdn(a2-3)Gal(b1-4)[Fuc(a1-3)]GlcNAc
Outline: as §1

Kdn(a2-6)Gal(b1-4)GlcNAc = test system: Kdn(a2-6)Gal(b1-4)GlcNAc
Outline: as §1

[25] = test system: Man(a1-2)Man(a1-2)Man(a1-3)Man
Outline: as §1

[26] = test system: Man(a1-2)Man(a1-2)Man(a1-6)[Man(a1-3)]Man
Outline: as §1

Man(a1-2)Man(a1-3)Man = test system: Man(a1-2)Man(a1-3)Man
Outline: as §1

[27] = test system: Man(a1-2)Man(a1-3)[Man(a1-2)Man(a1-6)]Man(a1-6)[Man(a1-2)Man(a1-2)Man(a1-3)]Man(b1-4)GlcNAc(b1-4)GlcNAc
Outline: as §1

[28] = test system: Man(a1-2)Man(a1-3)[Man(a1-2)Man(a1-6)]Man(a1-6)[Man(a1-2)Man(a1-2)Man(a1-3)]Man
Outline: as §1

[29] = test system: Man(a1-2)Man(a1-3)[Man(a1-2)Man(a1-6)]Man
Outline: as §1

[30] = test system: Man(a1-2)Man(a1-3)[Man(a1-6)]Man(a1-6)[Man(a1-2)Man(a1-3)]Man(b1-4)GlcNAc(b1-4)GlcNAc
Outline: as §1

[31] = test system: Man(a1-2)Man(a1-6)[Man(a1-3)]Man(a1-6)[Man(a1-2)Man(a1-2)Man(a1-3)]Man(b1-4)GlcNAc(b1-4)GlcNAc
Outline: as §1

[32] = test system: Man(a1-2)Man(a1-6)[Man(a1-3)]Man(a1-6)[Man(a1-2)Man(a1-2)Man(a1-3)]Man
Outline: as §1

[33] = test system: Man(a1-3)[Man(a1-6)]Man(a1-6)[Man(a1-2)Man(a1-3)]Man(b1-4)GlcNAc(b1-4)GlcNAc
Outline: as §1

[34] = test system: Man(a1-3)[Man(a1-6)]Man(a1-6)[Man(a1-3)]Man(b1-4)GlcNAc(b1-4)GlcNAc
Outline: as §1

[35] = test system: Man(a1-3)[Man(a1-6)]Man(a1-6)[Man(a1-3)]Man
Outline: as §1

[36] = test system: Man(a1-3)[Man(a1-6)]Man(b1-4)GlcNAc(b1-4)GlcNAc
Outline: as §1

[37] = test system: Man(a1-3)[Man(a1-6)]Man(b1-4)GlcNAc(b1-4)[Fuc(a1-6)]GlcNAc
Outline: as §1

Man(a1-3)[Man(a1-6)]Man = test system: Man(a1-3)[Man(a1-6)]Man
Outline: as §1

Man(a1-6)Man = test system: Man(a1-6)Man
Outline: as §1

Wza (Escherichia coli), P0A930
glycan array binding signal (z-score) [1]: 0.515 | glycan array binding signal (z-score) [2]: 0.698 | glycan array binding signal (z-score) [3]: -1.18 | glycan array binding signal (z-score) [4]: 1.34 | glycan array binding signal (z-score) [5]: -1.18 | glycan array binding signal (z-score) [6]: -0.183 | glycan array binding signal (z-score) [7]: 0.238 | glycan array binding signal (z-score) [8]: 0.119 | glycan array binding signal (z-score) [9]: -0.503 | glycan array binding signal (z-score) [10]: 0.046 | glycan array binding signal (z-score) [11]: 1.95 | glycan array binding signal (z-score) [12]: -0.704 | glycan array binding signal (z-score) [13]: 0.697 | glycan array binding signal (z-score) (GlcNAc(b1-3)Gal(b1-4)Glc): -0.11 | glycan array binding signal (z-score) (GlcNAc(b1-3)GalNAc): -0.25 | glycan array binding signal (z-score) (GlcNAc(b1-3)Gal): 0.004 | glycan array binding signal (z-score) (GlcNAc(b1-3)Man): 0 | glycan array binding signal (z-score) [14]: -0.187 | glycan array binding signal (z-score) [15]: 3.12 | glycan array binding signal (z-score) [16]: -0.007 | glycan array binding signal (z-score) [17]: 0.402 | glycan array binding signal (z-score) [18]: -0.076 | glycan array binding signal (z-score) [19]: 0.184 | glycan array binding signal (z-score) [20]: -0.546 | glycan array binding signal (z-score) (GlcNAc(b1-4)GlcNAc): -0.042 | glycan array binding signal (z-score) [21]: 2.4 | glycan array binding signal (z-score) [22]: -0.003 | glycan array binding signal (z-score) (GlcNAc(b1-6)GalNAc): 0.32 | glycan array binding signal (z-score) (GlcNAc3Prop(b1-4)GlcNAc): 0.521 | glycan array binding signal (z-score) [23]: -2 | glycan array binding signal (z-score) (Kdn(a2-3)Gal(b1-3)GalNAc): -0.819 | glycan array binding signal (z-score) (Kdn(a2-3)Gal(b1-3)GlcNAc): 0.313 | glycan array binding signal (z-score) (Kdn(a2-3)Gal(b1-4)GlcNAc): 0.8 | glycan array binding signal (z-score) (Kdn(a2-3)Gal(b1-4)Glc): -0.674 | glycan array binding signal (z-score) [24]: -0.783 | glycan array binding signal (z-score) (Kdn(a2-6)Gal(b1-4)GlcNAc): 1.66 | glycan array binding signal (z-score) [25]: 2.8 | glycan array binding signal (z-score) [26]: -0.801 | glycan array binding signal (z-score) (Man(a1-2)Man(a1-3)Man): 0.737 | glycan array binding signal (z-score) [27]: -0.23 | glycan array binding signal (z-score) [28]: -0.236 | glycan array binding signal (z-score) [29]: -0.253 | glycan array binding signal (z-score) [30]: -0.709 | glycan array binding signal (z-score) [31]: -0.481 | glycan array binding signal (z-score) [32]: 0.83 | glycan array binding signal (z-score) [33]: 0.776 | glycan array binding signal (z-score) [34]: -0.362 | glycan array binding signal (z-score) [35]: -0.413 | glycan array binding signal (z-score) [36]: -1.05 | glycan array binding signal (z-score) [37]: -1.88 | glycan array binding signal (z-score) (Man(a1-3)[Man(a1-6)]Man): 1.81 | glycan array binding signal (z-score) (Man(a1-6)Man): -1.27

From the supplement of paper PMC8728848
